Where “and” joins values, the source holds several entries; their conditions need not be identical. Identical values can stand only once. Screen size: about 220,000 compounds; about 2,400 (1.1%) were called active. The inconclusive results got no clear call from the source; some entries with a clear call stand among them for comparison. Calls follow the shape of the dose curve; as a rule, active = well fitted inhibition curve with a large enough effect; inconclusive = small, poorly fitted or top-dose-only effect, or effect the other way; inactive = no such curve, though single readings can be large or run the other way. Potencies beside an inconclusive call are fits to weak or partial responses and may not hold up. Where a structure was tested more than once in an assay, its records may differ in their call.
Experiment: qHTS Multiplex Assay to Identify Dual Action Probes in a Cell Model of Huntington: Aggregate Formation (GFP); also: nearly all actives have a fitted effect of over 60% in size
Settings: PC12 HttQ103-GFP aggregates, Acumen cytometry, 40 h; activity change, negative = inhibition: at 46.1 µM (top of the series) unless noted
Outline: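 Inducible Q103 Huntingtin exon 1–GFP PC12 line, 1500 cells/well in phenol red free DMEM with 5% equine and 5% calf serum. Tebufenozide 100 nM induced expression; compounds titrated; aggregates quantified by cytometry.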
% is scaled to controls: 0 for no effect and ±100 for the full control effect; potency is read from the fitted curve at half-maximal effect.

Row | SMILES | Potency | activity change, negative = inhibition
1 | O=c1[nH]cnc2sc3c(c12)CCCC3 | active: 12.6 µM | 
2 | Cc1cccc(NC(=S)N2CCCN(c3ncccc3[N+](=O)[O-])CC2)c1 |  | inactive: 3.31% [at 9.22 µM]
3 | O=c1c2c(nc3c(-c4ccc(Cl)cc4)c[nH]n13)CCC2 | inconclusive: 2 µM [inhibitor, full curve] | 
4 | COc1ccc(S(=O)(=O)Cc2ccc(C(=O)N3CCN(c4cc(Cl)ccc4C)CC3)o2)cc1 | active: 17.8 µM | 
5 | CN(C)S(=O)(=O)c1ccc(Cl)c(C(=O)Nc2cccc([N+](=O)[O-])c2)c1 | inconclusive: 28.2 µM [inhibitor, single point] | 
6 | C=CCNC(=S)Nc1ccc(Cl)cc1F | inactive | 
7 | CC(=O)c1ccc(N2CCN(C(=O)c3cc(-c4ccc5c(c4)OCO5)nc4ccccc34)CC2)cc1 | inconclusive: 0.562 µM [inhibitor, partial curve, poor fit] | 
8 | Cc1ccc(C(=O)OCc2nnc(-c3ccc(Br)cc3)o2)cc1 | inconclusive: 12.6 µM [activator, partial curve, poor fit] | 
9 | Cc1cc([N+](=O)[O-])cc2c1NC(=O)C2(O)N1CCCCCC1 (centres undefined) | inactive | 
10 | CCOC(=O)COc1ccc2c(=O)c(-c3ccccc3)coc2c1 |  | inactive: -28.3% [at 9.22 µM]
11 | Cc1noc(C)c1S(=O)(=O)N1CCN(c2ccccc2)CC1 | inconclusive: 0.447 µM [inhibitor, partial curve] | 
12 | Cc1c(C(=O)NN)sc(-c2ccccc2)c1C#N | inactive | 
13 | Cc1ccc(Cl)c2c1=NC(=O)C=2c1[nH]c(=S)[nH]c1O | inconclusive: 35.5 µM [inhibitor, single point] | 
14 | Cn1cnc([N+](=O)[O-])c1Oc1ccc2ccccc2c1 | inconclusive: 35.5 µM [inhibitor, single point] | 
15 | CC1(C)CC(=O)C(Sc2ccccc2[N+](=O)[O-])=C(O)C1 | inactive | 
16 | CCOc1ccccc1OCC(=O)Nc1ccc(S(=O)(=O)Nc2ncccn2)cc1 | inactive | 
17 | CCOC(=O)N1CCC(=NNC(=O)c2cc3ccccc3cc2O)CC1 | inconclusive: 5.01 µM [inhibitor, single point] | 
18 | O=C(OCCCN=C1NS(=O)(=O)c2ccccc21)c1ccc(F)cc1 | inconclusive: 0.562 µM [inhibitor, full curve, poor fit] | 
19 | Cc1c(NC(=O)c2cccc(NS(C)(=O)=O)c2)c(=O)n(-c2ccccc2)n1C | active: 1 µM | 
20 | COc1cc(CNCc2ccccc2C(F)(F)F)cc(OC)c1 | inconclusive: 11.2 µM [activator, partial curve, poor fit] | 
21 | COC(=O)c1ccc(COc2ccccc2/C=C(\C#N)C(=O)Nc2c(C)cc(C)cc2C)cc1 | inconclusive: 35.5 µM [inhibitor, single point] | 
22 | COc1ccc(/C=N/NC(=O)CN2CCSCC2)cc1C | inactive | 

Row | SMILES | Potency | activity change, negative = inhibition
23 | COc1cc([N+](=O)[O-])ccc1NC(=O)CSc1n[nH]c(C(C)C)n1 | inconclusive: 7.94 µM [inhibitor, partial curve] | 
24 | COc1ccccc1-c1cc(C(F)(F)F)nc(S(=O)(=O)CCCC(=O)Nc2cc(C)on2)n1 | inconclusive: 35.5 µM [inhibitor, single point] | 
25 | O=C(CCc1ccccc1)NC(=S)Nc1cc(C(F)(F)F)ccc1N1CCOCC1 | inconclusive: 10 µM [inhibitor, single point] | 
26 | C[C@H](CO)NC(=O)[C@H](C)[C@H]1C[C@]1(C)[C@H](NC(=O)OCc1ccccc1)c1ccccc1 | inactive | 
27 | CC(=C/C(=O)O)/C(=C/c1ccccc1)C(=O)O | inconclusive: 1.26 µM [inhibitor, single point] | 
28 | COc1ccc(-c2nc(N)n[nH]2)cc1OC | inactive | 
29 | S=C(Nc1ccc(Oc2ccccc2)cc1)N1CCN(c2ccccn2)CC1 | inconclusive: 35.5 µM [inhibitor, single point] | 
30 | O=C(NCc1cccs1)C1CCN(c2ccc(S(=O)(=O)N3CCOCC3)cc2Cl)CC1 | inconclusive: 0.794 µM [inhibitor, single point] | 
31 | O=C(/C=C/c1cccc([N+](=O)[O-])c1)Nc1ccccn1 | inactive | 
32 | CCN(CC)S(=O)(=O)c1ccc(N2CCOCC2)c(NC(=O)Cc2ccc(Cl)cc2)c1 | inconclusive: 3.16 µM [inhibitor, single point] | 
33 | COc1cccc2c1C(=O)c1c(O)c3c(c(O)c1C2=O)C[C@@](O)(C(C)=O)C[C@@H]3O[C@H]1C[C@H](N)[C@H](O)[C@H](C)O1 | inactive and active: 2.24 µM | 
34 | O=C(O)CCCCCNc1nc2ncn(Cc3ccccc3)c2c(=O)[nH]1 | inactive | 
35 | O=C(CSc1ccc2nnc(-c3ccc(Cl)cc3)n2n1)N1CCCc2ccccc21 | inconclusive: 35.5 µM [inhibitor, single point] | 
36 | CCOC(=O)CCNC(=O)Nc1ccc2nc(C)n(Cc3cccc(Cl)c3)c(=O)c2c1 | inconclusive: 0.891 µM [activator, full curve, poor fit] | 
37 | CCN(CC)C(=O)c1sc(NC(=O)C(Sc2ccccc2)c2ccccc2)c(C(=O)OC(C)C)c1C (centres undefined) | inconclusive: 31.6 µM [inhibitor, single point] | 
38 | CCOC(=O)c1c(C)[nH]c(C(=O)OCC(=O)NC(C)(C)C)c1C | inconclusive: 11.2 µM [inhibitor, partial curve] | 
39 | O=C(c1ccc2c(c1)OCO2)N1CCN=C1SCc1ccccc1 | inactive | 
40 | Cc1ccc(CSCc2ccc(C(=O)NCCCN3CCOCC3)o2)cc1 | inconclusive: 5.62 µM [activator, single point] | 
41 | N=C1C(c2ccccc2)=C(O)C2CCc3ccccc3N12 (centres undefined) | inactive | 
42 | O=C(NCc1n[nH]c(=S)n1-c1ccccc1)c1ccc(S(=O)(=O)N2CCOCC2)cc1 | inactive | 
43 | O=C(CCc1nnc(-c2ccsc2)o1)N1CCc2c(Cl)cccc2C1 |  | inactive: 28% [at 9.22 µM]
44 | COc1ccc(/C(N)=N/OC(=O)C2CCC(=O)N2S(=O)(=O)c2ccc(C)cc2)cc1OC (centres undefined) | inconclusive: 17.8 µM [activator, single point] | 
